# According to patent US20150231240A1, “ANTI-C16ORF54 ANTIBODIES AND METHODS OF USE THEREOF” (priority 2012, published 2015):
# Some entries repeat one wording, which the source may state once for all of them.
# System: cyno C16orf54
# Assay: Flow cytometry cross-reactivity with sarcoma cells expressing cyno C16orf54 (fold change over isotype)
# Assay type: binding, cynomolgous monkeys
# Details: 10 μg/ml antibody
# Description: Anti-C16orf54 antibodies which bound to human C16orf54 were tested for their reactivity with human C16orf54 and their crossreactivity with C16orf54 from cynomolgous monkeys (cyno C16orf54) using flow cytometry. Sarcoma cells transfected with and expressing human C16orf54 or cyno C16orf54 were washed with PBS with 0.1% BSA, incubated with FcX receptor blocking solution (BioLegend) for 15 minutes, incubated with 10 μg/ml of anti-C16orf54 antibody for 1 hour at 4° C., washed twice with PBS with 0.1% BSA, incubated with 20 μg/ml of R-Phycoerythrin-AffiniPure F(ab′)2 Fragment Goat Anti-Mouse IgG, Fcγ Fragment Specific (Jackson ImmunoResearch) for 30 minutes at 4° C., washed twice with PBS with 0.1% BSA, incubated with the viability dye TO-PRO-3 iodide (Life Technologies), and immediately analyzed on a MACSQuant Analyzer instrument (Miltenyi). For each cell line and anti-C16orf54 antibody, a fold change was derived by dividing the median fluorescence intensity for Phycoerythrin in the live cell population for the anti-C16orf54 antibody by the median fluorescence intensity for Phycoerythrin in the live cell population for the IgG isotype control antibody.
row,Molecule,binding to (crossreactivity with) cyno C16orf54 (flow cytometry)
1,"R29-8-57B: murine anti-C16orf54 monoclonal antibody; VH SEQ ID NO: 20, VL SEQ ID NO: 22 (antibody, V domains shown, R29-8-57B heavy chain variable region; R29-8-57B light chain variable region) VH: MRVLILLWLFTAFPGILSDVQLQESGPGLVKPSQSLSLTCTVTGYSITSDYAWNWIRQFPGNKLEWMGYINYSGSTRYNPSLKSRISITRDTSKNHFFLQLNSVTPEDTATYHCARERYDGVYYGMDYWGQGTSVTVSS VL: MDSQAQVLMSLLLWVSGTCGDIVMSQSPSSLAVSVGEKVTMSCKSSQSLLYSSNQKNYLAWYQQKPGQSPKLLIYWASTRESGVPDRFTGSGSGTDFTLTISSVKTEDLAVYYCQQYYSYRTFGGGTKLEIK","bind (e.g., are crossreactive with) cyno C16orf54"
2,"R29-8-136C: murine anti-C16orf54 monoclonal antibody; VH SEQ ID NO: 16, VL SEQ ID NO: 18 (antibody, V domains shown, R29-8-136C heavy chain variable region; R29-8-136C light chain variable region) VH: MRVLILLWLFTAFPGILSDVQLQESGPGLVKPSQSLSLTCTVTGYSITSDYAWNWIRQFPGNKLEWMGYINYSGSSRYNPSLKSRISITRDTSKNHFFLQLNSVTPEDTATYHCARERYDGVYYGMDYWGQGTSVTVSS VL: MDSQAQVLMSLLLWVSGTCGDIVMSQSPSSLAVSVGEKVTMSCKSSQSLLYSSNQKNYLAWYQQKPGQSPKLLIYWASTRESGVPDRFTGSGSGTDFTLTISSVKTEDLAVYYCQQYYSYRTFGGGTKLEIK","bind (e.g., are crossreactive with) cyno C16orf54"
3,"R29-67-7A: murine anti-C16orf54 monoclonal antibody, IgG2a; VH SEQ ID NO: 12, VL SEQ ID NO: 14 (antibody, V domains shown, R29-67-7A heavy chain variable region; R29-67-7A light chain variable region) VH: MRVLILLWLFTAFPGILSDVQLQESGPGLVKPSQSLSLTCTVTGYSITSDYAWNWIRQFPGNKLEWMGYINYSGRTRYNPSLNSRISLTRDTSTNQFFLQLNSVTTEDTATYYCARENYDYEFYAMDYWGQGTSVTVSS VL: MESQAQVLMLLLLWVSGTCGDIVMSQSPSSLAVSVGEKVTMSCKSSQNLLYSSNQKNYLAWYQQKPGQSPKLLIYWASTRESGVPDRFTGSGSGTDFTLTISSVKAEDLAVYYCQQYYIYRTFGGGTKLEIK","bind (e.g., are crossreactive with) cyno C16orf54"
4,"R29-7-1C: murine anti-C16orf54 monoclonal antibody, IgG2a; VH SEQ ID NO: 8, VL SEQ ID NO: 10 (antibody, V domains shown, R29-7-1C heavy chain variable region; R29-7-1C light chain variable region) VH: MRVLILLWLFTAFPGILSDVQLQESGPGLVKPSQSLSLTCTVTGYSITSDYAWNWIRQFPGNKLEWMGYISYSGSIRYNPSLKSRISITRDTSKNQFFLQLNSVTTEDTATYYCAREKYDNYYYAMDYWGQGTSVTVSS VL: MDSQAQVLMLLLLWVSGTCGDIVMSQSPSSLAVSVGEKVTLSCKSSQNLLYSTNQKNYLAWYQQKPGQSPKLLIYWASTRESGVPDRFTGSGSGTDFTLTISSVKAEDLAVYYCQQYYSYRTFGGGTKLEIK","bind (e.g., are crossreactive with) cyno C16orf54"
5,"R29-7-2A: murine anti-C16orf54 monoclonal antibody, IgG2b; VH SEQ ID NO: 4, VL SEQ ID NO: 6 (antibody, V domains shown, R29-7-2A heavy chain variable region; R29-7-2A light chain variable region) VH: MLLGLKWVFFVVFYQGVPCEVQLVESGGGLIQPKGSLKLSCVASGFSFNTHAMNWVRQAPGKGLEWVARIRSKSNNYARYYADSVKDRFTISRDDSQSILYLQMNNLKTEDTAMYYCVKQGDGGFAYWGQGTLVTVSA VL: MDSQAQVLMLLLLWVSGTCGDIVMSQSPSSLAVSVGEKVTMSCKSSQSLLYSSNQKNYLAWYQQRPGQSPKLLIYWASARESGVPDRFTGSGSGTDFTLTISSVKAEDLAVYYCQQYYSYPPTFGAGTKVELK","bind (e.g., are crossreactive with) cyno C16orf54"
